# Measurements published in PubChem BioAssay AID493014 (National Center for Advancing Translational Sciences (NCATS), 2011).
# Out of some 340,000 compounds screened, about 170 (0.05%) were called active. This list was built around the results that the source calls inconclusive (neither active nor inactive); the mix of calls is not that of the screen. The call rests on the fitted dose curve; in most records, active means well fitted inhibition curve with a large enough effect in the signal ratio, with a control signal flat (not every such curve was filed as active); inconclusive means small, poorly fitted or top-dose-only effect, or effect the other way, or a change in a side signal; inactive means flat fitted curve, though single readings scatter; the % refers to the signal ratio. A potency beside an inconclusive call is a rough fit, not a confirmed value.
# Assay: qHTS Assay to Find Inhibitors of Chronic Active B-Cell Receptor Signaling;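 on activity change, negative = inhibition: plate controls were basal doxycycline-induced cells for no effect and cells given 10 µM MG132 for full effect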
# Conditions: ABC-DLBCL IkBa-CBG/CBR reporter, luminescence ratio (green luciferase fused to IkBa over red control in TMD8 lymphoma cells), 4 h; activity change, negative = inhibition: at 46.1 µM (top of the series)
# How it was run: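 Concentration-response series (up to 46 uM) were applied to TMD8 dual-reporter cells for 4 h at 37C with doxycycline. Green/red ratio, after filter-overlap correction, defined %Activity; red signal alone was normalised to basal cells and zero luminescence.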
# Potency means the concentration at half of the fitted maximal effect.
Structure (SMILES),Potency,"activity change, negative = inhibition"
O=c1c2ccccc2nc(/C=C/c2ccc([N+](=O)[O-])o2)n1CCCO,"inconclusive: 3.16 µM [falling, full curve, poor fit]",
COc1ccc(C)cc1NC(=O)c1ccc(OC(F)F)cc1,,inconclusive: 4.16%
CCOC(=O)c1c(NC(=O)CSc2nnc(C)c(=O)[nH]2)sc2c1CCC2,,inconclusive: 4.79%
FCCCOc1ccc(-c2nccc(-c3ccc(F)cc3)n2)cc1,,inconclusive: 10.2%
O=c1[nH]c2ccc(S(=O)(=O)N3CCN(Cc4ccccc4)CC3)cc2[nH]c1=O,,inactive
O=C(O)C1C2C=CC(C2)C1C(=O)NCc1ccc(Cl)c(Cl)c1 (configuration not stated),,inactive
O=C1c2ccccc2C(=O)N1c1nc(-c2cccs2)cs1,"inconclusive: 4.11 µM [falling, single point]",
CC(=C1C(=O)c2ccccc2C1=O)N1CCN(c2ccc(F)cc2)CC1,,inconclusive: -6.68%
CC1CC1C(=O)OCC(=O)NCc1ccccc1Cl (configuration not stated),"inconclusive: 23.1 µM [falling, single point]",
O=C(CCN1C(=O)C2C3C=CC(C3)C2C1=O)N1CCN(c2ccccc2F)CC1 (configuration not stated),,inconclusive: 6.9%
Clc1ccccc1-c1nc(-c2ccncc2)no1,"inconclusive: 35.5 µM [falling, single point]",
C(=N\Nc1nc(-c2cccnc2)nc2ccccc12)/c1ccccc1,,inactive
COc1ccc(C2c3ccsc3CCN2C(C)=O)cc1 (configuration not stated),"inconclusive: 11.2 µM [falling, partial curve]",
Cc1cccc(NC(=O)CCC2CCN(C(=O)c3ccc(C)s3)CC2)c1,,inactive
CCC(=O)Nc1ccc(C2C(=O)c3ccccc3C2=O)cc1,,inactive
COC(=O)C1=C(C)NC(C)=C(C(=O)OCC2CCCO2)C1c1cccc(Br)c1 (configuration not stated),"inconclusive: 25.1 µM [falling, single point]",
CC(=O)c1ccc(N2C(=O)N(Cc3ccc(F)cc3)c3ccccc3S2(=O)=O)cc1,"inconclusive: 35.5 µM [falling, partial curve, poor fit]",
C/C(=C\C(=O)OCC(=O)NCc1ccccc1)C(=O)OCC(=O)NCc1ccccc1,,inconclusive: 3.49%
CCN(CC)c1ccc(NC(=O)Cn2cc3c(n2)CCC(C)C3)c(C)c1 (configuration not stated),,inactive
C/C(=N\NC(=O)c1cc(-c2cccc([N+](=O)[O-])c2)n[nH]1)c1ccc(F)cc1,,inconclusive: -1.01%
COc1cc(OC)cc(C(=O)NCCn2ccc3ccccc32)c1,"inconclusive: 10 µM [falling, partial curve, poor fit]",

Structure (SMILES),Potency,"activity change, negative = inhibition"
Cc1ccc(N2CS(=O)(=O)/C(=C/N(C)C)C2=O)cc1,,inconclusive: 6.8%
COc1ccc(OCC(=O)Nc2ccc(S(=O)(=O)N(C)c3ccccc3)cc2)cc1,,inactive
CN(C(=O)CSc1nnc(C2CC2)n1-c1ccccc1)C1CCS(=O)(=O)C1 (configuration not stated),,inconclusive: 2.1%
COCCn1c(=S)[nH]c2cc(C(=O)N3CC(C)CC(C)C3)ccc2c1=O (configuration not stated),,inconclusive: 9.88%
COc1ccc(OC)c(CN2CCN(C(=O)c3cccs3)CC2)c1,,inconclusive: -0.617%
C[C@H]1CN=C(N(C)C)N1CC1CCCCC1,,inactive
Fc1ccc(/C=N/Nc2nnnn2-c2ccccc2)cc1,,inactive
COc1ccc(C)cc1NC(=O)CSc1nc(=O)n(Cc2cccnc2)c2c1CCC2,"inconclusive: 3.55 µM [falling, partial curve, poor fit]",
CC(C)Cc1ccc(/C=C/C(=O)NC2CC2)cc1,,inconclusive: 1.5%
CCOC(=O)c1c(C)nc2sc3c(c2c1-c1ccc(OC)cc1)NC(c1ccc(OC)cc1)NC3=O (configuration not stated),,inconclusive: -13.2%
CCNC(=O)c1cccc(NC(=O)c2cc(C3CC3)nc3c2cnn3C(C)C)c1,,inconclusive: 3.46%
COc1nc(-c2ccc(Cl)cc2)ccc1-c1noc(-c2ccco2)n1,,inactive
CCOC(=O)C(=O)N1CCC(Cc2ccccc2)CC1,,inactive
COc1ccc(CNC(=O)Nc2ccc3c(c2)N(C)C(=O)CS3)cc1,"inconclusive: 35.5 µM [falling, single point]",
FC(F)(F)c1cccc(Cc2noc(CN3CCC(N4CCCCC4)CC3)n2)c1,,inconclusive: 20.1%
O=C(Nc1cc(C(F)(F)F)ccc1-n1cncn1)c1ccc(Cl)cc1,,inconclusive: 11.4%
CC(Nc1nc(-c2ccccc2O)nc2ccccc12)c1ccccc1 (configuration not stated),"inconclusive: 3.16 µM [rising, partial curve, poor fit]",
COc1cc(-c2ccno2)ccc1S(=O)(=O)N1CCN(c2cccc(Cl)c2)CC1,"inconclusive: 5.62 µM [rising, partial curve]",
Cc1ccc2nc(-c3ccccc3)c(CN3CCOCC3)n2c1,,inactive
CC1CCCN(CC(=O)Nc2cc(Cl)ccc2Oc2ccccc2)C1 (configuration not stated),,inconclusive: 25.3%
COc1cccc(N(CC(=O)NC(C)(C)C)C(=O)C2CSC(=O)C2)c1 (configuration not stated),,inactive

# Structural class: the entries above containing four or more nitrogen atoms.
Structure (SMILES),Potency,"activity change, negative = inhibition"
CCOC(=O)c1c(NC(=O)CSc2nnc(C)c(=O)[nH]2)sc2c1CCC2,,inconclusive: 4.79%
O=c1[nH]c2ccc(S(=O)(=O)N3CCN(Cc4ccccc4)CC3)cc2[nH]c1=O,,inactive
C(=N\Nc1nc(-c2cccnc2)nc2ccccc12)/c1ccccc1,,inactive
CCN(CC)c1ccc(NC(=O)Cn2cc3c(n2)CCC(C)C3)c(C)c1 (configuration not stated),,inactive
C/C(=N\NC(=O)c1cc(-c2cccc([N+](=O)[O-])c2)n[nH]1)c1ccc(F)cc1,,inconclusive: -1.01%
CN(C(=O)CSc1nnc(C2CC2)n1-c1ccccc1)C1CCS(=O)(=O)C1 (configuration not stated),,inconclusive: 2.1%
Fc1ccc(/C=N/Nc2nnnn2-c2ccccc2)cc1,,inactive
COc1ccc(C)cc1NC(=O)CSc1nc(=O)n(Cc2cccnc2)c2c1CCC2,"inconclusive: 3.55 µM [falling, partial curve, poor fit]",
CCNC(=O)c1cccc(NC(=O)c2cc(C3CC3)nc3c2cnn3C(C)C)c1,,inconclusive: 3.46%
FC(F)(F)c1cccc(Cc2noc(CN3CCC(N4CCCCC4)CC3)n2)c1,,inconclusive: 20.1%
O=C(Nc1cc(C(F)(F)F)ccc1-n1cncn1)c1ccc(Cl)cc1,,inconclusive: 11.4%

# Continued:

Structure (SMILES),Potency,"activity change, negative = inhibition"
Cc1cc(C)c(S(=O)(=O)N2CCN(C(=O)c3cc4ccccc4oc3=O)CC2)c(C)c1,,inconclusive: 3.64%
CCC(=O)NC(=S)Nc1ccc(NC(=O)c2cccnc2)cc1,"inconclusive: 5.62 µM [falling, partial curve]",
O=C(CSc1ccccc1)Nc1ccc(S(=O)(=O)NCC2CCCO2)cc1 (configuration not stated),"inconclusive: 29.1 µM [falling, single point]",
CC1=CC(c2ccccc2)n2nc(NC(=O)CCCC(=O)O)nc2N1 (configuration not stated),,inconclusive: 9.3%
COCCCNC(=O)c1cc2c(=O)n3cc(C)ccc3nc2nc1NCC1CCCO1 (configuration not stated),,inconclusive: -1.4%
O=C(Cn1nc(C(=O)O)c2ccccc2c1=O)Nc1cccc(S(=O)(=O)N2CCOCC2)c1,,inconclusive: -2.26%
CC(=O)Nc1nc(C)c(-c2csc(Nc3ccc(S(N)(=O)=O)cc3)n2)s1,"inconclusive: 2.24 µM [falling, full curve, poor fit]",
COc1ccccc1C1CCN(C(=S)Nc2ccc(Br)cc2)CC1,,inconclusive: 4.09%
COc1ccc(-c2cc(C)no2)cc1S(=O)(=O)NCC1CCN(Cc2cc(C)ccc2C)CC1,,inactive
Cc1ccc(C(=O)Nc2ccc(N3CCOCC3)c3nonc23)cc1[N+](=O)[O-],,inactive
O=C(CSc1ccc(-c2ccco2)nn1)c1ccc(F)cc1,,inactive
CC(C)(Cc1ccc(O)cc1)NC(=O)CC(=O)N/N=C/c1ccc(Cl)cc1,,inactive
N#Cc1ccc(NCC(=O)Nc2ccc3c(c2)OCCO3)cc1,,inactive
COc1ccccc1/C=N/NC(=O)c1ccccc1NS(=O)(=O)c1ccc(C)cc1,,inactive
Cc1nc2ccc(NC(=O)c3cc([N+](=O)[O-])cc([N+](=O)[O-])c3Cl)cc2s1,"inconclusive: 13 µM [falling, partial curve]",
CCOc1ccc2[nH]c3ncccc3c(=O)c2c1,,inconclusive: 0.867%
Cc1cccc(OCC(=O)Nc2cccc(O)c2)c1,"inconclusive: 16.4 µM [falling, partial curve, poor fit]",
Cc1ccc(C(=O)CN(C(=O)c2ccc(Cl)cc2)N2C(=O)c3ccccc3C2=O)cc1,,inconclusive: 5.5%
COc1ccc(COc2cc(-c3cccc(OC)c3)nc3ccc(N)cc23)cc1,"inconclusive: 16.4 µM [falling, partial curve]",
COC(=O)c1cc(Br)c(=O)n(-c2ccc(C(C)=O)cc2)c1,,inconclusive: 5.42%
CCOc1ccccc1N1CCN(CC(O)COc2ccc3c(C)cc(=O)oc3c2)CC1 (configuration not stated),,inconclusive: -3.73%

Structure (SMILES),Potency,"activity change, negative = inhibition"
CCOCCC(=O)Nc1nnc(CCc2ccccc2)s1,,inactive
COCCCNC(=O)Cc1c(C)c2c(cc(C)c3c(C(C)(C)C)coc32)oc1=O,"inconclusive: 5.62 µM [cytotoxic, full curve]",
O=C(NC1=NCCS1)c1cc(-c2ccccc2)nn1-c1ccccc1,,inconclusive: 0.0746%
O=S(=O)(c1ccccc1)c1nc(-c2ccccc2F)oc1NCc1cccnc1,,inconclusive: -0.579%
NS(=O)(=O)c1ccc(NC(=O)c2cc(-c3cccs3)nc3ccccc23)cc1,,inconclusive: 21.1%
CC1=CC(C)(C)n2c(O)c(N=NC(N)=S)c3c(C)ccc1c32,,inconclusive: -13.4%
CCOc1cc(C(=O)CCC(=O)OCC(=O)N2c3ccccc3NC(=O)C2(C)C)ccc1O,"inconclusive: 16.4 µM [falling, partial curve, poor fit]",
COc1ccccc1NS(=O)(=O)c1ccc2c(c1)N(C(C)=O)CC(C)S2 (configuration not stated),,inconclusive: -16.8%
Cc1ccc(C(=O)N2CCc3ccccc32)cc1[N+](=O)[O-],,inactive
COc1ccc(NC2CCCN(C(=O)CCc3scnc3C)C2)cc1 (configuration not stated),,inconclusive: 2.5%
Cc1cc(NCC2CCCCC2)nc2ccccc12,,inconclusive: 9.65%
CCOC(=O)c1nn(-c2ccccc2C)c2nc(-c3ccc(Cl)cc3)c(C#N)c(=O)n12,,inconclusive: 14.9%
C=CCOC(=O)C1=C(C)Nc2ncnn2C1c1cc(Br)ccc1F (configuration not stated),,inconclusive: -2.69%
COc1cccc(C(=O)CSc2nccn2C)c1,,inconclusive: -22.9%
Cc1cc(Br)ccc1NC(=O)CSCc1c(C)noc1C,,inactive
Cc1ccnc(NC(=O)CNC(=O)Cc2cccc3ccccc23)c1,,inconclusive: -5.31%
Cc1ccc(/C=C(\C#N)C(=O)Nc2cccc3ncccc23)o1,,inconclusive: -17.4%
CC(C)NS(=O)(=O)c1ccc(CCC(=O)N2CCOCC2)cc1,,inconclusive: 2.35%
Cc1ccc(S(=O)(=O)N2CCCCC2CCNC(=O)C(=O)NCc2ccccc2)cc1 (configuration not stated),,inconclusive: -7.69%

# An excerpt from above in order of formula weight, low to high.
Structure (SMILES),Potency,"activity change, negative = inhibition"
Cc1ccc2nc(-c3ccccc3)c(CN3CCOCC3)n2c1,,inactive
C(=N\Nc1nc(-c2cccnc2)nc2ccccc12)/c1ccccc1,,inactive
Cc1cccc(NC(=O)CCC2CCN(C(=O)c3ccc(C)s3)CC2)c1,,inactive
